From publication PMC3556742

The chains behind the UniProt entries cited, without tags or fusion partners.
UniProt Q9Y4K3: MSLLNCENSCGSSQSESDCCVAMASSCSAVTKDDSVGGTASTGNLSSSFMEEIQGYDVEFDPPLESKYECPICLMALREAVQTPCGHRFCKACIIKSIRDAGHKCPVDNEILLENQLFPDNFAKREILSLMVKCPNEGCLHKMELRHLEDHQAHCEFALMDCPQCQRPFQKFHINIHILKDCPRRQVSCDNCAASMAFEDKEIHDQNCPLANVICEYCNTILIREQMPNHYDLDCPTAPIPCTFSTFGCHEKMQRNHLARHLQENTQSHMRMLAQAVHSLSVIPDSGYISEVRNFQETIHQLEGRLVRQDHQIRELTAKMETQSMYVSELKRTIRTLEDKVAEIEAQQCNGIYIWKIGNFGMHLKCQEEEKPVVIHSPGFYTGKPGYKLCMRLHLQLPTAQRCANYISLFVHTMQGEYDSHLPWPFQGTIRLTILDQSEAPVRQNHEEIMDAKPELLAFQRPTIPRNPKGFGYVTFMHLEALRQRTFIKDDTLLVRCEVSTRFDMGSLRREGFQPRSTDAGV

Molecular target: HA-tagged TRAF6 (human) (UniProt Q9Y4K3)
Experiment: co-IP; 293 cells co-transfected with HA-TRAF6 and pCR3.1 tetherin constructs; lysed 48 h later in 1% digitonin, 50 mM Tris-HCl pH 7.4, 150 mM NaCl with protease inhibitors and N-ethylmaleimide; postnuclear supernatant precipitated with anti-HA.11 mAb and protein G agarose; blot with anti-HA and anti-BST2

| binding | Substance |
| --- | --- |
| binds | chimpanzee tetherin (from UniProt D7RVC2) |
| binds | chimpanzee tetherin with the DDIWK motif deleted (from UniProt D7RVC2) |

These are yes or no findings as the source states them, for the method shown. In cells and extracts the contact can be indirect. A result given as binding can be weak or reduced; the word gives no strength.
